Experimental data: PubChem BioAssay AID743454 (Peter MacCallum Cancer Centre, 2014)

Purpose: 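Search for knock-downs that restore vorinostat killing in resistant colon cancer cells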 (primary screen)
Cells: human HCT116-VR colon cancer cells, selected for vorinostat resistance
Reagent: siRNA pool against human genes, 40 nM siRNA pool
Timing: vorinostat for 24 h, read-out about 72 h after transfection
Conditions: vorinostat at 2.5 µM final
Read-out: 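Two measures, CellTiter-Fluor viability and luminescent caspase 3/7 activity, each as fold change against same-plate mock wells, mean of duplicates, then screen-wide robust z-score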
Scale: viability robust z-score: higher = more viable cells than screen typical; caspase robust z-score: higher = more caspase 3/7 activity than screen typical
Rule for the call: 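Hits are knock-downs in viability class RV1/RV2 or caspase class CA1/CA2, excluding ones that killed cells in the no-drug cell-count arm; hits then retested with single siRNAs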
Here is an unselected part of about 18,000 deposited reagents. 450 of them (2.5%) were called active. 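Single biological run; no consistent viability z cut-off exists, so the class columns, not z-scores, define the calls.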

With knock-down of RACK1 the results were viability hit class no change; caspase hit class no change; viability robust z-score -1.75; caspase robust z-score -0.8; inactive. For PPM1H the deposit lists viability hit class no change; caspase hit class no change; viability robust z-score 0.06; caspase robust z-score -0.31; inactive. Against DDX24 the deposit lists viability hit class no change; caspase hit class no change; viability robust z-score -0.92; caspase robust z-score 1.48; inactive. With knock-down of BEST4, the record shows viability hit class no change; caspase hit class no change; viability robust z-score 1.26; caspase robust z-score 0.23; inactive. Against PAWR the deposit lists viability hit class no change; caspase hit class no change; viability robust z-score 0.6; caspase robust z-score -0.85; inactive.

Targets listed so far whose target name begins with P or p:
PPM1H — viability hit class: no change; caspase hit class: no change; viability robust z-score: 0.06; caspase robust z-score: -0.31; outcome: inactive
PAWR — viability hit class: no change; caspase hit class: no change; viability robust z-score: 0.6; caspase robust z-score: -0.85; outcome: inactive

Additional records:
For MUS81 the deposit lists viability hit class no change; caspase hit class no change; viability robust z-score 0.53; caspase robust z-score 0.1; inactive. Knock-down of IMPG2 resulted in: viability hit class no change; caspase hit class no change; viability robust z-score 0.03; caspase robust z-score -0.44; inactive. KLHL14 gave viability hit class no change; caspase hit class no change; viability robust z-score 0.81; caspase robust z-score 1.09; inactive. SLC39A13 showed viability hit class no change; caspase hit class no change; viability robust z-score -0.12; caspase robust z-score 0.11; inactive. Silencing of GABPA resulted in: viability hit class no change; caspase hit class no change; viability robust z-score 0.56; caspase robust z-score 0.22; inactive. Depletion of CCDC186 came out at: viability hit class no change; caspase hit class no change; viability robust z-score 0.34; caspase robust z-score 0.01; inactive.

For FBXO22, the values are viability hit class no change; caspase hit class no change; viability robust z-score -0.09; caspase robust z-score -0.16; inactive. LZTS2 scored viability hit class no change; caspase hit class no change; viability robust z-score 0.04; caspase robust z-score 0.16; inactive. Against TCL1A the deposit lists viability hit class no change; caspase hit class no change; viability robust z-score -0.12; caspase robust z-score 0.56; inactive.
